Publication PMC11734925
No constants are given. Whether binding was seen depends on the method and setting. In cells and extracts the contact can be indirect. Here binding means that the protein was enriched with, or labelled near, the bait; the list need not be complete. Sequences can lack the tags named with a protein.

Protein sequences, listed by entry. Tags and fused reporters are not part of them. Lines headed by an entry give the natural chain unless they say otherwise; changes in a name come on top.
UniProt Q9W3W6: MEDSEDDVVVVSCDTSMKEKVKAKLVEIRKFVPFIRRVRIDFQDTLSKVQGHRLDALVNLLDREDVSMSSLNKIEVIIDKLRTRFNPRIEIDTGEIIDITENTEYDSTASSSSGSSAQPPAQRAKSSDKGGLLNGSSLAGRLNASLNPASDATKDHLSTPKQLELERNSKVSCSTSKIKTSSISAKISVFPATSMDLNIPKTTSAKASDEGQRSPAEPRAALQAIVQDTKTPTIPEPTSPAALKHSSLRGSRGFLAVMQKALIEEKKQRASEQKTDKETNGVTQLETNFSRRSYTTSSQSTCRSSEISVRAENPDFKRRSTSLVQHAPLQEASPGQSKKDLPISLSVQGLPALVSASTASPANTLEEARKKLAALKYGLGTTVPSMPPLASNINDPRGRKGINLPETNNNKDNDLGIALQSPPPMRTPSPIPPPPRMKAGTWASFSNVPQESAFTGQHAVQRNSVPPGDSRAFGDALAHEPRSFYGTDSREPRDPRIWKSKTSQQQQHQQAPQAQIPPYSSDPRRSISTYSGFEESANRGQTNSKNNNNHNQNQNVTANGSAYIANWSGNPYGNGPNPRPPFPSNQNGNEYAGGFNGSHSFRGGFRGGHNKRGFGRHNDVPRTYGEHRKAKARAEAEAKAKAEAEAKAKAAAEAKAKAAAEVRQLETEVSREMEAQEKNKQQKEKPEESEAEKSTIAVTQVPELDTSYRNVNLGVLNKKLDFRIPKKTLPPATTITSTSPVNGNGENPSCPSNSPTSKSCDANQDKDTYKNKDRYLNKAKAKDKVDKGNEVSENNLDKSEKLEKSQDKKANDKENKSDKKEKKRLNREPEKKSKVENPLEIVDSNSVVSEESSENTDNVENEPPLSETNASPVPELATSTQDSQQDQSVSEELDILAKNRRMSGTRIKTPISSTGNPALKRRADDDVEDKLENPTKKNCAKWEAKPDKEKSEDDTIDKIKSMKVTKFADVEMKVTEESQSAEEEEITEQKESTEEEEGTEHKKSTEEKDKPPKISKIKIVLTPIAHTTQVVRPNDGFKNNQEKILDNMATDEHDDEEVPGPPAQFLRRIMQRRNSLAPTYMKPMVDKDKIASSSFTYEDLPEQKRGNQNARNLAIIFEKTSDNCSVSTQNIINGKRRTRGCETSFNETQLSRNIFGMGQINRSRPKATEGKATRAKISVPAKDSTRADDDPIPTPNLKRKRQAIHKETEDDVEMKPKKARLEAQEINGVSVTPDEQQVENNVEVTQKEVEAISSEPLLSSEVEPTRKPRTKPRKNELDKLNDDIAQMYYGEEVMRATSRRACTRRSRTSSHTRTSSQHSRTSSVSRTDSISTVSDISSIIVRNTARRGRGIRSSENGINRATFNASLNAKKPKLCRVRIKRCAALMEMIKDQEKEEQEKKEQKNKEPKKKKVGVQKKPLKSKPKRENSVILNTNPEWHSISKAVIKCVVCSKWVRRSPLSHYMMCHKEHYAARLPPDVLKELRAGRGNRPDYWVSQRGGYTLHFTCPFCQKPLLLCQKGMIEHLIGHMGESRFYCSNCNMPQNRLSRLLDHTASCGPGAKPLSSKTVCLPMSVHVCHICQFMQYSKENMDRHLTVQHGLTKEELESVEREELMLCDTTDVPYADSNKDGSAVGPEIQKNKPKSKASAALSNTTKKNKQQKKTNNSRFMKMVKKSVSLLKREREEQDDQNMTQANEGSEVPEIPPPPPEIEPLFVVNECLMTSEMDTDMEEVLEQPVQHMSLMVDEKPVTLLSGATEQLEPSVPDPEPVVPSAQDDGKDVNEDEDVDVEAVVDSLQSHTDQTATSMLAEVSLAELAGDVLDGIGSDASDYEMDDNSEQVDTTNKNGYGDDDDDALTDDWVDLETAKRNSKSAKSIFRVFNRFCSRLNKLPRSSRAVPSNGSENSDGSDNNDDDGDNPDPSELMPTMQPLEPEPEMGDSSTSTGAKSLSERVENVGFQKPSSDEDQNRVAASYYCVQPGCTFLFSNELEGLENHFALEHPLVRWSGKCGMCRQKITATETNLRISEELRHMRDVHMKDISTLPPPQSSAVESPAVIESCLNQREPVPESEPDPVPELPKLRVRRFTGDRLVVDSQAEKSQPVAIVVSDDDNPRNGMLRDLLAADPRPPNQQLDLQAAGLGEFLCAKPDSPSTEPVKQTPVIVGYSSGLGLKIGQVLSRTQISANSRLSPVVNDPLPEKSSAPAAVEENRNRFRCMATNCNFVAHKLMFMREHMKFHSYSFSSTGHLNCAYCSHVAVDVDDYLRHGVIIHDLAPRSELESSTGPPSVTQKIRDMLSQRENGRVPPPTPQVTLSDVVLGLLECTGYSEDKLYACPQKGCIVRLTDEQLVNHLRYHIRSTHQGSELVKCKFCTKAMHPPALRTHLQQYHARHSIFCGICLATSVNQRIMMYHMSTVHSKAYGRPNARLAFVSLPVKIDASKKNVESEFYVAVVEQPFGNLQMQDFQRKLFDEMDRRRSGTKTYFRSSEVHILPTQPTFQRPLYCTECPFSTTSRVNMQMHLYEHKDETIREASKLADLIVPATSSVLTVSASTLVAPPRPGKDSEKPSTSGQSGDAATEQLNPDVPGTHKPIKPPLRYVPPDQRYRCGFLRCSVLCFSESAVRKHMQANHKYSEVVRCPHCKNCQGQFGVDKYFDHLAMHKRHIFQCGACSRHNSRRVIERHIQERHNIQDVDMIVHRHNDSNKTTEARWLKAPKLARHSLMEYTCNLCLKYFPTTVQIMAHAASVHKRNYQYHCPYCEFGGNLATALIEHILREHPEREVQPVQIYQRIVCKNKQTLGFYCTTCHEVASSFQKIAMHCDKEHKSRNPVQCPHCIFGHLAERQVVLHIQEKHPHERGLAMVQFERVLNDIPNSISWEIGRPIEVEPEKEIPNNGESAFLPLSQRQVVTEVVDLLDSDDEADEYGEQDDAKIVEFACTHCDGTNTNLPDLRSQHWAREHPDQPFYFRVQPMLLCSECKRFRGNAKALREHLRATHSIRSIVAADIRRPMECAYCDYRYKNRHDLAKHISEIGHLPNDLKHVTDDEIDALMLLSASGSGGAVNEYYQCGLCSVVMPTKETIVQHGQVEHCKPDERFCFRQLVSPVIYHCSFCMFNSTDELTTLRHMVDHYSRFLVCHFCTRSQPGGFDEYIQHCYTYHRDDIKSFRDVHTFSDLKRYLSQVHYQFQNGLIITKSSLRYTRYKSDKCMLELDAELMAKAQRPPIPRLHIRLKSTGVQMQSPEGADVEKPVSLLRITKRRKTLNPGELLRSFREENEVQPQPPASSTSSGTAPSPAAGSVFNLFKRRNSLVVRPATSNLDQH

T1: GFP-D1 (D. melanogaster) (UniProt P22058)
T1 sequence: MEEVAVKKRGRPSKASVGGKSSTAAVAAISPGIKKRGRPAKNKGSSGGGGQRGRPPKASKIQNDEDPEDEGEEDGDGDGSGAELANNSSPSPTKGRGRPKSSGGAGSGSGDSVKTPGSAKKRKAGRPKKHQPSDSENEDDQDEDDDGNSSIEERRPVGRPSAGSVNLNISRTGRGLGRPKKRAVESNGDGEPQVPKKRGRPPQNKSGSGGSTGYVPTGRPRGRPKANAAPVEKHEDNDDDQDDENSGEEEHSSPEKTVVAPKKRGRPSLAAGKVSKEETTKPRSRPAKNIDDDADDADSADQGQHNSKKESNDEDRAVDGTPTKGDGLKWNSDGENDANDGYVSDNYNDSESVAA

B1: Top2 (protein, UniProt P15348 1-1447)
chain: MENGNKALSIEQMYQKKSQLEHILLRPDSYIGSVEFTKELMWVYDNSQNRMVQKEISFVPGLYKIFDEILVNAADNKQRDKSMNTIKIDIDPERNMVSVWNNGQGIPVTMHKEQKMYVPTMIFGHLLTSSNYNDDEKKVTGGRNGYGAKLCNIFSTSFTVETATREYKKSFKQTWGNNMGKASDVQIKDFNGTDYTRITFSPDLAKFKMDRLDEDIVALMSRRAYDVAASSKGVSVFLNGNKLGVRNFKDYIDLHIKNTDDDSGPPIKIVHEVANERWEVACCPSDRGFQQVSFVNSIATYKGGRHVDHVVDNLIKQLLEVLKKKNKGGINIKPFQVRNHLWVFVNCLIENPTFDSQTKENMTLQQKGFGSKCTLSEKFINNMSKSGIVESVLAWAKFKAQNDIAKTGGRKSSKIKGIPKLEDANEAGGKNSIKCTLILTEGDSAKSLAVSGLGVIGRDLYGVFPLRGKLLNVREANFKQLSENAEINNLCKIIGLQYKKKYLTEDDLKTLRYGKVMIMTDQDQDGSHIKGLLINFIHTNWPELLRLPFLEEFITPIVKATKKNEELSFYSLPEFEEWKNDTANHHTYNIKYYKGLGTSTSKEAKEYFQDMDRHRILFKYDGSVDDESIVMAFSKKHIESRKVWLTNHMDEVKRRKELGLPERYLYTKGTKSITYADFINLELVLFSNADNERSIPSLVDGLKPGQRKVMFTCFKRNDKREVKVAQLSGSVAEMSAYHHGEVSLQMTIVNLAQNFVGANNINLLEPRGQFGTRLSGGKDCASARYIFTIMSPLTRLIYHPLDDPLLDYQVDDGQKIEPLWYLPIIPMVLVNGAEGIGTGWSTKISNYNPREIMKNLRKMINGQEPSVMHPWYKNFLGRMEYVSDGRYIQTGNIQILSGNRLEISELPVGVWTQNYKENVLEPLSNGTEKVKGIISEYREYHTDTTVRFVISFAPGEFERIHAEEGGFYRVFKLTTTLSTNQMHAFDQNNCLRRFPTAIDILKEYYKLRREYYARRRDFLVGQLTAQADRLSDQARFILEKCEKKLVVENKQRKAMCDELLKRGYRPDPVKEWQRRIKMEDAEQADEEDEEEEEAAPSVSSKAKKEKEVDPEKAFKKLTDVKKFDYLLGMSMWMLTEEKKNELLKQRDTKLSELESLRKKTPEMLWLDDLDALESKLNEVEEKERAEEQGINLKTAKALKGQKSASAKGRKVKSMGGGAGAGDVFPDPDGEPVEFKITEEIIKKMAAAAKVAQAAKEPKKPKEPKEPKVKKEPKGKQIKAEPDASGDEVDEFDAMVEGGSKTSPKAKKAVVKKEPGEKKPRQKKENGGGLKQSKIDFSKAKAKKSDDDVEEVTPRAERPGRRQASKKIDYSSLFSDEEEDGGNVGSDDDGNASDDDSPKRPAKRGREDESSGGAKKKAPPKKRRAVIESDDDDIEIDEDDDDDSDFNC
B2: Elg1 (protein, UniProt Q86BP6 1-1162)
chain: MTDVNCLTSEHIAPTTTTASPPGTPSKNAATDPVEPTSPFVLRAPPSAKSKLILQNMEEVLNSVKQKHREKHKRKREEKRRAALMEDQKSTTEEVKANAKEKPQPLREKSSQENGLKNGRRRSSPLKSSTPVADNQSIMKHFAKAGKPENVGVSPVSTAKPKPTTNVFEFMMNARNRSLGVNEGGAESPADQEIGSEAATPTTKRKLLLQEWNERKGGAKRRLADEARGEFIELQMEQRAKRLRKMLTKTDAKEVTAPSSAPTDPTVKRLRGRPRSRRISSMDAQNQIVESKPPVVKAKDQDPGTEELLSKLSSPTKKRDSLLGYFPKVESPKELAEKVIIAIETPPMETPKRRTLRRKSQQETPIVAESTPSSRPRRSCVGKARYDYDLETSPGKQQKAKPQKADESVEIIDLDNSNPAATPKKLAPLFVRQLPKPSPDPSVLKARQAFLQSGVPDKIRQEQIRQKNFDQMYEDSYEVFPRLAHIGCESFGSKNGPLDIPFALRAEEEYSEVTKALPANKRRAKASSITSCLPADFTSSKTLNKFNYATLPQLENKRGFVKLWKNDFDRFPTFKCYNQMREKYRHFSAIDSAQDTQQMGESLVVTRRTRRSMEQNMAQNEEEAKPPPSAPNGELLFTEKYKPLLFEQVLVNLTPVQELREFLSSWSGNGGSNRNSQGMDDTFDMSNDSASMGSSSNTMVLVGPSSSGKTNAVFTLANDMNFNVLEINAGMKRTGKKLIQELQEATQSHQIRKDGKAGGGSSQQLLQKLQKSGLKAKAAAVEPPSEVRKSLILIEDADILFDNLDAGFTDAIYTLAASSKRPVIVVATDPNCAHLQRLMQQNIIHFQAPNALNISRFLAVLSLMENCPIELDELISVYLYNQQNLRKTLMELQFYIQSGGDSTRDRTGGGIKSPTKTSNSRLATVDGSRIHQRFFEFFTSPQNVQYRIPFPVDFSLLRLNLPDLMASSAMLKEQQAAGGGSRTAAKRKSRSPKKAWLSSATGQKSDGHSSSLATLASFYDNISVASLMDSDCSDRLQWHLSEEIGHLLVEQALQTGLATKECPYNLFDKPVQRFSICQHLGNGVLRSDSAKSLDFEPALRSICRSEKERAGLERKSSRFYHYLRNHTVNVTSFTTDYFDTACSTFQSAAPSSEPTMEAEPKD
B3: mei-S332 (protein, UniProt Q24141 1-401)
chain: MGSKVEQQYKLLNAELMDQVQKQRLEIGEYRKRVISLEREIMDIREEHVLQNHRQRMENISIVRSLMLSLNVDSDSLAVRQEPAPAAQINRPSGPRRSSREICKDMRRTCALARTTRPISPRRSSSVTSTVSSTSRRSSAEVQSEVVTTRIPEDRRANKPTPPPRRPAELVFDEDDSDDDFDEAVSPVEETQTEQNEENNRLFSIIEENGSEGESTDSSSSCEAIYCDTTFESSPPNAQVTVTPSGRALREVDTNIPVAVSLSRGKETGKGSWLAISVAVEDSPQEPSIQCPRLAVTRPSQSSGIFPDVNGLTPRRSLFNGIGKMAGSTSTPKSFLVEEMPSIRTRSRTAANKKSENTDMSSSFCNNSARPSRSCRPTSLVEPSLKNKLRNGSKGKAKAKK
B4: Xpc (protein, UniProt Q24595 1-1293)
chain: MSDEEEDSVSEGFSASEDEWKPSKDVKGGESSDDDDSDFDELQAEGGAAGSSGRSSAVAGKRGDHKAPSGIKGSSVKKRKPTGQSLRSKLYNKYRPPPKTFPTSPSQQKENTPRASGSKNAKTPNESGARNQHGPADSSSESSVEDYLVNPADLDLHSTFFAGGQKEKSPAPQFDCNAGITNLSDSGSEDNNESSFEDKAGNAFDFRGLLENANSLERTRDALSKRNVTATPPRSQAATMDVNALLALGENQNYQSVEVEEREGNQRKKAGRGAPAAPPTLDEPSRLSKTKSTRIKRHTKTRPVSTVVANAGDTDDSDFEEVADADLSSDQDDGETPNISGDLEIRVGLEGLRPTKEQKTQHELEMALKRRLNRDIKDRQILLHKVSLMCQIARSLKYNRLLSESDSLMQATLKLLPSRNAYPTERGTELKYLQSFVTWFKTSIKLLSPNLYSAQSPATKEAILEALLEQVKRKEARCKQDMIFIFIALARGMGMHCRLIVNLQPMPLRPAASDLIPIKLRPDDKNKSQTVESERESEDEKPKKDKKAGKPAEKESSKSTISKEAEKKNNAKKAEAKPLSKSTTKGSETTKSGTVPKVKKELSLSSKLVEKSKHQKAYTSSKSDTSFDEKPSTSSSSKCLKEEYSELGLSKKLLKPTLSSKLVLKSKNQSSFSSNKSDTSFEENPSTSSSSKSLKEETAKLSSSKLEDKKVASPAETKTKVQSSLLKRVTTQNISESGDSKKPKVAPVDTFSPVAGRTRRATVKPKTEEKPQVVGSPVIPKLMLSKVKQLNAKHSDTENASPANKHLQEQRNTRETRSRSKSPKVLISPSFLKKKSDGADSTSDPQKHQMAPETKARISPNFLSEALPARQLRSRGQKASSLAIPQLDGGDDVPLPKKRPKLEKLKNSQDSDEVFEPAKPVKKAPVLPKSVQNLRKDRRVMSTDDEGGSRLNRKTDASDMWVEVWSDVEEQWICIDLFKGKLHCVDTIRKNATPGLAYVFAFQDDQSLKDVTARYCASWSTTVRKARVEKAWLDETIAPYLGRRTKRDITEDDQLRRIHSDKPLPKSISEFKDHPLYVLERHLLKFQGLYPPDAPTLGFIRGEAVYSRDCVHLLHSREIWLKSARVVKLGEQPYKVVKARPKWDRLTRTVIKDQPLEIFGYWQTQEYEPPTAENGIVPRNAYGNVELFKDCMLPKKTVHLRLPGLMRICKKLNIDCANAVVGFDFHQGACHPMYDGFIVCEEFREVVTAAWEEDQQVQVLKEQEKYETRVYGNWKKLIKGLLIRERLKKKYNF

Target: T1, GFP-D1 (D. melanogaster)
Experiment: affinity purification with mass spectrometry; GFP-D1 or GFP-Prod captured on anti-GFP nanobody magnetic beads from lysate of nuclei isolated from embryos (450 mM NaCl, 1% Triton-X, benzonase), 90 min at 4°C; washes with 450 mM NaCl; hits against the NLS-GFP control pulldown

binding | Molecule
binds | Stwl (D. melanogaster (endogenous in embryos))
binds | CG42232 (from UniProt B7Z0I8)
binds | CG5599 (D. melanogaster (endogenous in embryos))
binds | small ovary (Sov) (from UniProt Q9W3W6)
binds | POLDIP2 (D. melanogaster (endogenous in embryos))
binds | ADD1 (D. melanogaster (endogenous in embryos))
binds | hybrid male rescue (Hmr) (D. melanogaster (endogenous in embryos))
binds | B1
binds | B2
binds | B3
binds | B4

Molecule | binding
lethal hybrid rescue (Lhr) (D. melanogaster (endogenous in embryos)) | binds
